Patent US20250082717A1, “COMPOSITIONS FOR TREATING KIDNEY DISEASE” (RHYTHM PHARMACEUTICALS, INC., priority 2018, published 2025)

Test system: BBS10^−/− mice
Test: Setmelanotide daily for one week, body weight and plasma and urine biomarker levels
Format: in vivo
Conditions: 1.25 mg/kg daily for one week, compared to vehicle or pair-fed mice
Experimental: In order to assess the effect of setmelanotide on body weight and the levels of certain biomarkers, BBS10^−/− mice were administered setmelanotide (1.25 mg/kg) daily for one week. […] However, setmelanotide treatment did result in an increase in urine calcium levels as well as an increase in urine creatine levels (FIG. 4).
Additional studies in these mice entailed measurement of blood plasma levels of the biomarkers leptin and adiponectin after treatment with setmelanotide (1.25 mg/kg). […] Further, the leptin: adiponectin ration was decreased in setmelanotide treated mice.

CC(=O)N[C@@H](CCCNC(=N)N)C(=O)N[C@H]1CSSC[C@@H](C(N)=O)NC(=O)[C@H](Cc2c[nH]c3ccccc23)NC(=O)[C@H](CCCNC(=N)N)NC(=O)[C@@H](Cc2ccccc2)NC(=O)[C@H](Cc2cnc[nH]2)NC(=O)[C@@H](C)NC1=O [setmelanotide, Ac-Arg-c (Cys-D-Ala-His-D-Phe-Arg-Trp-Cys)-NH2]
did not alter: blood plasma level of calcium | blood plasma level of chloride | blood plasma level of creatine | blood plasma level of glucose | blood plasma level of phosphorus | blood plasma level of potassium | blood plasma level of sodium
